Results are given in words; binding and its absence hold for the method and conditions named. For some assays here: Binding seen in cells or lysates may run through a third protein. Some results given as binding are weak or reduced against the parent protein; the word gives no strength. For some assays here: Tags and fused reporters may be left off the sequences shown.
Columns and labels:
[1] = biological target: TMEM9 (human (endogenous in HEK293)) (UniProt Q9P0T7); assay: cross-linking; XL-MS: intact early endosomes purified by Endo-IP (FLAG-EEA1, HEK293EL, eluted without detergent) in KPBS, 1 mM DSSO, room temperature, 40 min; XlinkX, 5% FDR
[2] = biological target: T1, TMEM9B (human (endogenous in HEK293 and in H9-derived iNeurons)) (UniProt Q9NQ34); assay: as above
T1 sequence: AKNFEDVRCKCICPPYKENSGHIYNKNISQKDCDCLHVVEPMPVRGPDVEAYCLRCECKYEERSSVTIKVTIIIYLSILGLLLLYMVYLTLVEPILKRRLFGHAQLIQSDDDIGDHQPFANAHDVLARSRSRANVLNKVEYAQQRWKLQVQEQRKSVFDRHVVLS

Chains of the proteins cited; added tags and fusions are not shown. Residues count along the entry.
UniProt Q9P0T7, residues 21-183: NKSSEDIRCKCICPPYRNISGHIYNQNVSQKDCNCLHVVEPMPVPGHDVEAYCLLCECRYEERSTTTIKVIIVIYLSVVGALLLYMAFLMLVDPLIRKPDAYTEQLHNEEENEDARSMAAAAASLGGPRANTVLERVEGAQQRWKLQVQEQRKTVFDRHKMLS

[3] = biological target: TMEM9 (human (endogenous in HEK293)) (UniProt Q9P0T7); assay: native gel or EMSA; BN-MS: endosomal pellets (Endo-IP, HEK293EL) extracted with 0.5% DDM in KPBS, 4-16% NativePAGE at 4°C, 48 slices, DIA-MS; co-migration of elution profiles
[4] = biological target: T1, TMEM9B (human (endogenous in HEK293 and in H9-derived iNeurons)); assay: as above
TMEM9-3xHA (human) = TMEM9-3xHA (human) (UniProt Q9P0T7); assay: co-IP; HEK293 cells transfected for 48 h; extraction with 0.5% DDM, 25 mM HEPES pH 7.4, 150 mM NaCl; anti-HA or anti-Flag magnetic beads, 2 h, 4°C; immunoblot
TMEM9B-3xHA (human) = biological target: T2, TMEM9B-3xHA (human) (UniProt Q9NQ34); assay: as above
T2 sequence: T1 sequence

CLCN5-3xFlag (human) = biological target: T3, CLCN5-3xFlag (human) (UniProt P51795); assay: as above
T3 sequence: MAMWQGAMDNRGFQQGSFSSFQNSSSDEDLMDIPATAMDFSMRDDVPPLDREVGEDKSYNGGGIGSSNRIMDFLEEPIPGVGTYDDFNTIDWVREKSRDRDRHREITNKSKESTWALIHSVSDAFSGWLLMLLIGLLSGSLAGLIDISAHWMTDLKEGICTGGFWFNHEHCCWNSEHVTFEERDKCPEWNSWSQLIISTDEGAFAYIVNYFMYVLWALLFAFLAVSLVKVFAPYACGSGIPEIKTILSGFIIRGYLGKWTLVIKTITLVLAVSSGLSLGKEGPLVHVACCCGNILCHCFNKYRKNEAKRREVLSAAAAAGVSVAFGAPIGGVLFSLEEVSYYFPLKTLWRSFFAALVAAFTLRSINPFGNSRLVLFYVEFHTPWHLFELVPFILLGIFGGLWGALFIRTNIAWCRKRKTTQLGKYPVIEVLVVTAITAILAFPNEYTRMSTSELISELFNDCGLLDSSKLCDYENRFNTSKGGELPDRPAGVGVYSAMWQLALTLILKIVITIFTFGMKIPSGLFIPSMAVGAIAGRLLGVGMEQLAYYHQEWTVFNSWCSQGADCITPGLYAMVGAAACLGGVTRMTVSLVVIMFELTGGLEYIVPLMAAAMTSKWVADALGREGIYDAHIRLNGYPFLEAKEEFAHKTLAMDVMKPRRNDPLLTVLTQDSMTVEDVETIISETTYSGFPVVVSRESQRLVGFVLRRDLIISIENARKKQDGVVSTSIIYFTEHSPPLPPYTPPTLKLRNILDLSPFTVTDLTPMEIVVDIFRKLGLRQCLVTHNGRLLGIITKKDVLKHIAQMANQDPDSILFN

CLCN3-3xFlag (human) = biological target: T4, CLCN3-3xFlag (human) (UniProt P51790); assay: as above
T4 sequence: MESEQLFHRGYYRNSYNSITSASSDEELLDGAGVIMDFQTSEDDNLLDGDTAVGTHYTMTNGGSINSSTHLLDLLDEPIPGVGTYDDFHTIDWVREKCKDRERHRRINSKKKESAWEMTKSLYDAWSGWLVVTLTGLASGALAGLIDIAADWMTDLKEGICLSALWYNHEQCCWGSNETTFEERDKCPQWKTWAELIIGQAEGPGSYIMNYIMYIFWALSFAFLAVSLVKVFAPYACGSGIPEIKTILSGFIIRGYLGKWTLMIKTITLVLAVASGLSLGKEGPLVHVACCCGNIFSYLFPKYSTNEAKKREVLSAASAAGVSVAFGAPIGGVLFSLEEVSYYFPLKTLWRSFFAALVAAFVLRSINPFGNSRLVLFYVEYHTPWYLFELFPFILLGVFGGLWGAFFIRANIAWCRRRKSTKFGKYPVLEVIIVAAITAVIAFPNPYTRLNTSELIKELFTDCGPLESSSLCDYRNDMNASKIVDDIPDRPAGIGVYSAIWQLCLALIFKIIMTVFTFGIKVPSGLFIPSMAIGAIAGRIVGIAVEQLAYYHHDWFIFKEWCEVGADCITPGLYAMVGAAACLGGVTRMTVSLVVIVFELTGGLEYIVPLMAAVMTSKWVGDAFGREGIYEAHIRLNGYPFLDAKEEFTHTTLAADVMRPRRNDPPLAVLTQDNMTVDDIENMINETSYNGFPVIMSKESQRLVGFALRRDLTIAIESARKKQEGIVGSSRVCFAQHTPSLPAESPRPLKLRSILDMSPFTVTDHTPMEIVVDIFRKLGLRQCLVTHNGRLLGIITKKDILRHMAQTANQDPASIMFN

B1: CLCN5 (protein, UniProt P51795 1-816)
chain: T3 sequence
In the case of B1, the binding [1] is reported as “binds”, the binding [2] is reported as “binds” and the binding [3] is reported as “binds”. For the same binder, the binding [4] was “binds”.

B2: CLCN5-3xFlag (protein, UniProt P51795 1-816)
chain: T3 sequence
For B2, the binding (TMEM9-3xHA (human)) was “binds” and the binding (TMEM9B-3xHA (human)) was “binds”.

B3: TMEM9B-3xHA (protein, UniProt Q9NQ34 34-198)
chain: T1 sequence
In the case of B3, the binding (CLCN5-3xFlag (human)) is reported as “binds” and the binding (CLCN3-3xFlag (human)) is reported as “binds”.

From article doi:10.1101/2025.02.07.636106
